The record followed here is paper PMC8637366 (Slas Discovery, 2021).

The chains behind the UniProt entries cited, without tags or fusion partners. Residues count along the entry.
UniProt P06276, 29-602: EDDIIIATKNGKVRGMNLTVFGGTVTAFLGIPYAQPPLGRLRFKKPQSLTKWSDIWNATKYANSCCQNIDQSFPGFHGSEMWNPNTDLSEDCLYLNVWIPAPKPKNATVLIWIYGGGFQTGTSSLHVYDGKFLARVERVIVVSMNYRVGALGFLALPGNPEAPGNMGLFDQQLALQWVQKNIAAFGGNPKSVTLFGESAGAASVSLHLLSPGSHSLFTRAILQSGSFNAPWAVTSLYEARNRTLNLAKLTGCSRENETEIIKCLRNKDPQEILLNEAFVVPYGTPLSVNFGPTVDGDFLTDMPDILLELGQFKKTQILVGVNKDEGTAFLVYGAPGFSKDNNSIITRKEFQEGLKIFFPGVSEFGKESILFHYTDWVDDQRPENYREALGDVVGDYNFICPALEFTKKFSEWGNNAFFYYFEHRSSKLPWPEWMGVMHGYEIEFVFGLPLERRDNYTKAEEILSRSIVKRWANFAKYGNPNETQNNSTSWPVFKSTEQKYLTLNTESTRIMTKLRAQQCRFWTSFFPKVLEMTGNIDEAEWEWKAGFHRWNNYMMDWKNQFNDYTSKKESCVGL

The target in this test is Recombinant human BChE (Homo sapiens, UniProt P06276). Type of test: biochemical.

Take `C#CC1(O)CCC2C3CCC4Cc5nc6nc7ccccc7n6cc5CC4(C)C3CCC21C` (stereo not shown) [WIN 51708 hydrate]: the “inhibition against BChE in the fluorescent assay” value is on record as “did not show inhibition”.
